Measurements taken from PMC10382351, “In vivo evaluation of a novel ^18F-labeled PET radioligand for translocator protein 18 kDa (TSPO) in monkey brain” (European Journal of Nuclear Medicine and Molecular Imaging, 2023).

System: 18 kDa translocator protein (TSPO)
Assay: PET imaging of [^18F]SF51 in rhesus monkey brain with kinetic analysis (2TCM, Logan plot, Lassen plot)
Type: in vivo
Conditions: for (Logan-2TCM)/2TCM × 100 %: VT/fP, n=3
Experimental: Electrocardiogram, body temperature, heart rate, and respiratory rate measures were monitored throughout the scan.
Brain PET imaging was performed using a microPET Focus 220 camera (Siemens Medical Solution; Knoxville, TN). […] For baseline experiments, 20 mL of a vehicle containing 20% (2-hydroxypropyl)-β-cyclodextrin and two equivalents of HCl were injected intravenously 10 min before radioligand administration. For the blocked experiment, PK11195 was dissolved in vehicle and then injected intravenously (5 mg/kg) 10 min before radioligand injection for all three monkeys. One of the three monkeys underwent an additional blocked scan with 5 mg/kg of PBR28, performed using a MultiScan™ LFER 150 PET/CT (Mediso USA, LLC; Arlington, VA). The interval between baseline and blocked imaging sessions was at least three weeks in order to allow the monkey to recover from arterial blood sampling. Focus 220 PET images were histogrammed into 30 time frames (6 × 30, 3 × 60, 2 × 120, 4 × 300, and 15 × 600 s) and reconstructed using Fourier rebinning plus a two-dimensional filtered back-projection with scatter and attenuation correction. MultiScan LFER PET images were reconstructed with 3D-OSEM with two iterations and nine subsets and were corrected for scatter and attenuation.
PET images were co-registered to a standardized monkey MRI template using PMOD software (PMOD version 4.1, PMOD Technologies Ltd.; Zurich, Switzerland). Thirty-three predefined regions of interest (ROIs) from a monkey brain template were applied to the co-registered PET images to obtain regional time-activity curves (Supplementary Table S2). Brain uptake was expressed as standardized uptake value (SUV), which normalizes for injected radioactivity and body weight. Using the brain time-activity curves and the radiometabolite-corrected arterial input function, the total VT was derived from a two-tissue compartment model (2TCM). Receptor occupancy by PK11195 and nondisplaceable distribution volume (VND/fP) of [^18F]SF51 were determined by an axes-transformed Lassen plot, where the y-axis reports the difference in VT between the baseline and the blocked scans, corrected by the respective fp values, and the x-axis reports the values at baseline (VTbase/fPbase).

## CC[C@@H](C)N(C)C(=O)c1nc(-c2cccc([18F])c2)c2ccccc2n1 [[^18F]SF51]
Baseline, Amygdala
  (Logan-2TCM)/2TCM × 100 %: -5.5%
Baseline, Cerebellum
  (Logan-2TCM)/2TCM × 100 %: -4.2%
Baseline, Cingulate Cortex
  (Logan-2TCM)/2TCM × 100 %: -4.6%
Baseline, Frontal Cortex
  (Logan-2TCM)/2TCM × 100 %: -4.3%
Baseline, Hippocampus
  (Logan-2TCM)/2TCM × 100 %: -4.1%
Baseline, Insula
  (Logan-2TCM)/2TCM × 100 %: -4.3%
Baseline, Occipital Cortex
  (Logan-2TCM)/2TCM × 100 %: -4.4%
Baseline, Parietal Cortex
  (Logan-2TCM)/2TCM × 100 %: -4.4%
Baseline, Striatum
  (Logan-2TCM)/2TCM × 100 %: -4.4%
Baseline, Temporal Cortex
  (Logan-2TCM)/2TCM × 100 %: -4.2%
Baseline, Thalamus
  (Logan-2TCM)/2TCM × 100 %: -4.4%
Baseline, Whole Brain
  (Logan-2TCM)/2TCM × 100 %: -4.4%
Blocked (PK11195), Amygdala
  (Logan-2TCM)/2TCM × 100 %: -0.3%
Blocked (PK11195), Cerebellum
  (Logan-2TCM)/2TCM × 100 %: -2.6%
Blocked (PK11195), Cingulate Cortex
  (Logan-2TCM)/2TCM × 100 %: -2.6%
Blocked (PK11195), Frontal Cortex
  (Logan-2TCM)/2TCM × 100 %: -2.6%
Blocked (PK11195), Hippocampus
  (Logan-2TCM)/2TCM × 100 %: -1.3%
Blocked (PK11195), Insula
  (Logan-2TCM)/2TCM × 100 %: -2.4%
Blocked (PK11195), Occipital Cortex
  (Logan-2TCM)/2TCM × 100 %: -1.7%
Blocked (PK11195), Parietal Cortex
  (Logan-2TCM)/2TCM × 100 %: -2.1%
Blocked (PK11195), Striatum
  (Logan-2TCM)/2TCM × 100 %: -1.5%
Blocked (PK11195), Temporal Cortex
  (Logan-2TCM)/2TCM × 100 %: -1.7%
Blocked (PK11195), Thalamus
  (Logan-2TCM)/2TCM × 100 %: -4.9%
Blocked (PK11195), Whole Brain
  (Logan-2TCM)/2TCM × 100 %: -1.8%
Baseline scans
  Negative bias of Logan-plot versus 2TCM: about 4%
Blocked scans
  Negative bias of Logan-plot versus 2TCM: ~2%
Monkey brain regions, within 100 min of imaging
  Deviation of VT from that at 180 min: ≤ 10%
